Measurements taken from PMC6539903 (Molecules, 2019).

Key:
Type in all cases: cell-based
HepG2 = assay: MTT antiproliferation assay, HepG2; settings: Homo sapiens, HepG2, 48 h, read-out: IC50 ± SD HepG2
Text: (§1) […]. […] […]. […] […].
(§2) MCF-7 (human breast cell line), HeLa (human cervical cell line), A549 (human lung cell line), HepG2 (human liver cell line), SW620 (human colorectal cell line) and a non-cancer cell line, NCM460 (Human colonic epithelial cells) were preserved at the State Key Laboratory of Pharmaceutical Biotechnology, Nanjing University (Nanjing, China). Cells were maintained in Dulbecco′s modified Eagle′s medium (DMEM) (HyClone, Logan, UT, USA) with 10% fetal bovine serum (FBS, BI) (HyClone, Logan, UT, USA), 100 U/mL penicillin and 100 mg/mL streptomycin (Hyclone, Logan, UT, USA), and incubated at 37 °C in a humidified atmosphere containing 5% CO2.
(§3) The antiproliferative activity of the synthetic compounds against the SW620, MCF-7, HeLa, A549, HepG2, and NUM460 cell lines was evaluated by a colorimetric assay based on a modified standard (MTT). Test cell lines were seeded at a density of 1 × 10^4/well in 96-well plates and incubated for 12 h at 37 °C in DMEM supplemented with 10% fetal bovine serum. All test compounds dissolved in DMSO were then treated to cells at 0 μM, 0.1 μM, 1 μM, 10 μM, and 100 μM and incubated for 48 h at 37 °C in 5% CO2. […] The absorbance (OD 570 nm) was read at 630 nm on an ELISA reader (ELx800, BioTek, montpelier, VT, USA). IC50 values for the compounds were calculated by comparison to DMSO treated control wells. […]

MCF-7 = assay: MTT antiproliferation assay, MCF-7; settings: Homo sapiens, MCF7, 48 h, read-out: IC50 ± SD MCF-7
Text: as §1, §2, §3

HeLa = assay: MTT antiproliferation assay, HeLa; settings: Homo sapiens, 48 h, read-out: IC50 ± SD HeLa
Text: as §1, §2, §3

SW620 cells = assay: MTT antiproliferation assay, SW620; settings: Homo sapiens, SW-620, 48 h, read-out: IC50 ± SD SW620
Text: as §1, §2, §3

[1] = MTT cytotoxicity assay, non-cancer colon cells; settings: human, NCM460 colonic epithelial cells (non-cancer cell line), n = 3, non-cancer cell line, read-out: CC50 ± SD NUM460
Procedure: […]. […] […]. Besides, the MTT assay was performed on a non-cancer line NCM460 to assess the cytotoxicity of the test compound to normal colon cells. […].
as §2
as §3, with “serum.” for “serum. All test compounds dissolved in DMSO were then treated to cells at 0 μM, 0.1 μM, 1 μM, 10 μM, and 100 μM and incubated for 48 h at 37 °C in 5% CO2.”

Compound `Cc1ccc(-c2cc(C(F)(F)F)nn2-c2ccc(S(N)(=O)=O)cc2)cc1` [Celecoxib, reference compound] has an IC50 (HepG2) of 3.12 ± 0.27 µM, an IC50 (MCF-7) of 2.63 ± 0.09 µM and an IC50 (HeLa) of 2.56 ± 0.15 µM. The IC50 (SW620 cells) was 1.29 ± 0.04 µM and the CC50 at 48 h [1] was 136 ± 9.86 µM.
